# Source: PubChem BioAssay AID1224826 (NIAID, 2016)
# Aim: 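Knock-downs that raise or lower Tnf reporter signal after endotoxin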 (primary screen)
# Cell system: RAW264.7 G9 macrophages from mouse bearing reporters for p65 (GFP) and the Tnf promoter (mCherry)
# Reagents: siRNA pool against mouse genes, 100 nM
# Duration: 16 h of LPS stimulation, after 2 days of siRNA transfection
# Challenge: bacterial lipopolysaccharide (Salmonella minnesota R595), 10 ng/ml
# Detection: 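Imaged Tnf reporter mCherry in nuclei, minus background, normalised per plate to the median and expressed as robust z-scores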
# Scale: Tnf reporter robust z-score: higher = stronger Tnf promoter reporter signal after LPS; Tnf reporter intensity: higher = stronger Tnf promoter reporter signal
# Rule for the call: 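a well counts as active at a score of -1.3 or below (Tlr4 knock-down control median) or above 3 (raised signal); controls and wells holding fewer than 50 cells are excluded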
# Calls: active = Tnf reporter clearly lowered or raised; inactive = no clear change in Tnf reporter
# The deposit covers about 17,000 reagents; below is a part drawn at random. Over the whole deposit, about 1,110 (6.6%) were called active. 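Active means lowered or raised reporter signal; replicate intensities are raw and not normalised per plate.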 Not all columns of the deposit are shown.
gene,Tnf reporter robust z-score,fewer than 50 cells in well,"Tnf reporter intensity, replicate 1",activity call
Or51a42,0.83,enough cells in well,113,inactive
Trp53rkb,-0.52,enough cells in well,150,inactive
2810032G03Rik,3.98,enough cells in well,513,active
Tmem80,1.18,enough cells in well,208,inactive
Rpp14,0.18,enough cells in well,283,inactive
Or8b35,4.19,enough cells in well,282,active
Klhl28,-0.88,enough cells in well,1185,inactive
Fas,-0.75,enough cells in well,163,inactive
Vmn1r44,-0.47,enough cells in well,113,inactive
Slc39a10,,fewer than 50 cells per well; well left out of calls,84.1,inactive
A430057O09,-0.85,enough cells in well,122,inactive
Lrrc3b,1.52,enough cells in well,324,inactive
Gstm5,-0.82,enough cells in well,211,inactive
Prh1,0.3,enough cells in well,126,inactive
Utp11,0.22,enough cells in well,253,inactive
Sox21,0.6,enough cells in well,143,inactive
Cox10,0.47,enough cells in well,274,inactive
Stoml2,-0.6,enough cells in well,95,inactive
Or10q1b,2.18,enough cells in well,298,inactive
Or4f59,0.63,enough cells in well,226,inactive
Cog6,-0.9,enough cells in well,151,inactive
Ksr2,1.52,enough cells in well,358,inactive
Or2j6,2.84,enough cells in well,196,inactive
Selenok,0.26,enough cells in well,104,inactive

Entries listed so far called active, once more:
gene,Tnf reporter robust z-score,fewer than 50 cells in well,"Tnf reporter intensity, replicate 1",activity call
2810032G03Rik,3.98,enough cells in well,513,active
Or8b35,4.19,enough cells in well,282,active
